Experimental data published in PMC4712133.
These are yes or no findings as the source states them, for the method shown. Some results given as binding are weak or reduced against the parent protein; the word gives no strength.

By UniProt entry, the sequences of proteins in these tests, tags left out. Residues count along the entry.
UniProt P10451, residues 17-314: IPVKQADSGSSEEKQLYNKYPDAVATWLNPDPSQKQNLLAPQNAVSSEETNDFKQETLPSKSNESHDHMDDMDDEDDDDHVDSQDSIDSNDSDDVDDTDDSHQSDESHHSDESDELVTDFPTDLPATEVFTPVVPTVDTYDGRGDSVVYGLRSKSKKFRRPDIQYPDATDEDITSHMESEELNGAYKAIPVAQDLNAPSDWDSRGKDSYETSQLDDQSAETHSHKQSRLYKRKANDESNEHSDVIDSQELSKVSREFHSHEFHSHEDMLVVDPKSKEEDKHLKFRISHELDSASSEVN

Biological target: osteopontin (OPN), recombinant human (human) (UniProt P10451)
Assay: SPR; BIAcore X-100; human OPN immobilised on a CM5 chip by amine coupling; AMPs injected at 31.25-500 nM in 10 mM HEPES pH 7.5, 150 mM NaCl, 0.005% surfactant P20, 3.4 mM EDTA, 30 ul/min; 1:1 binding model with drifting baseline; both purified

Row | Binder | binding
1 | midkine (protein, UniProt P21741 21-143) VAKKKDKVKKGGPGSECAEWAWGPCTPSSKDCGVGFREGTCGAQTQRIRCRVPCNWKKEFGADCKYKFENWGACDGGTGTKVRQGTLKKARYNAQCQETIRVTKPCTPKTKAKAKAKKGKGKD | binds
2 | GIINTLQKYYCRVRGGRCAVLSCLPKEEQIGKCSTRGRKCCRRKK (peptide, UniProt P81534 23-67) [human beta defensin-3 (hBD-3)] | binds
